Source: the supplement of paper PMC5836539
± gives the standard deviation of the averaged measurements. Single values are uncertain here, since repeats match poorly.

Protein sequences, listed by entry. Tags and fused reporters are not part of them. Lines headed by an entry give the natural chain unless they say otherwise; changes in a name come on top.
UniProt O60841: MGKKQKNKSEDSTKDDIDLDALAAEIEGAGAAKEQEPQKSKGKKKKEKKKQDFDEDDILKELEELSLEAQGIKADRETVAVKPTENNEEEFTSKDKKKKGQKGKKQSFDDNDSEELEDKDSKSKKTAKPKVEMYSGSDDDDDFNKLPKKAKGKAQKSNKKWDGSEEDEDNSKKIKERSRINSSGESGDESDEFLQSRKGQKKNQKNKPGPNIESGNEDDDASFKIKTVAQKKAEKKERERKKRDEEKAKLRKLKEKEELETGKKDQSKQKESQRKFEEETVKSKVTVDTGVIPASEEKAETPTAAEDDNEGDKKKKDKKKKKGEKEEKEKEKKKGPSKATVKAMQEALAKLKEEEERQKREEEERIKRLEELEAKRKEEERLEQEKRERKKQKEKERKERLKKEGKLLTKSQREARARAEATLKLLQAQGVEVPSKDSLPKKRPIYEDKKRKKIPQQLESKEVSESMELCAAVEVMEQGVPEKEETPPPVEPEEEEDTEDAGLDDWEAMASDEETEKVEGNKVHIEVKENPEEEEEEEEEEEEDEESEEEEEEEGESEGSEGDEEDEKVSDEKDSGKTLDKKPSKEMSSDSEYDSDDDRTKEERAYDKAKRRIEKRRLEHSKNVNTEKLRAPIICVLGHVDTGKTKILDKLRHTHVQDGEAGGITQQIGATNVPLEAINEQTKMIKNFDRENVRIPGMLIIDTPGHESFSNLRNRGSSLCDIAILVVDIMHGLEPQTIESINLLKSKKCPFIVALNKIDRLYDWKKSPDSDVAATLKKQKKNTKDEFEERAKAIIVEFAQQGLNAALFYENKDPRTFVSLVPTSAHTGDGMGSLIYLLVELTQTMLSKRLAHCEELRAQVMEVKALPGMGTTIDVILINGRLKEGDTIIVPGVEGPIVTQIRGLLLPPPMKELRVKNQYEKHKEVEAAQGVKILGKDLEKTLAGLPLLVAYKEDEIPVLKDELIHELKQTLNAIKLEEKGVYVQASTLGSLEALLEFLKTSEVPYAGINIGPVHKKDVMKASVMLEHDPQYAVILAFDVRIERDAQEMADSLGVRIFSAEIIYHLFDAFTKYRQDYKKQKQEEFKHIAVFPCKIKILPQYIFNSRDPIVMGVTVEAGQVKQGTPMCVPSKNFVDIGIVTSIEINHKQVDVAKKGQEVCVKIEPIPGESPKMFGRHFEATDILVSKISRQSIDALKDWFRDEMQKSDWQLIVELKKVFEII
UniProt Q6P3S6: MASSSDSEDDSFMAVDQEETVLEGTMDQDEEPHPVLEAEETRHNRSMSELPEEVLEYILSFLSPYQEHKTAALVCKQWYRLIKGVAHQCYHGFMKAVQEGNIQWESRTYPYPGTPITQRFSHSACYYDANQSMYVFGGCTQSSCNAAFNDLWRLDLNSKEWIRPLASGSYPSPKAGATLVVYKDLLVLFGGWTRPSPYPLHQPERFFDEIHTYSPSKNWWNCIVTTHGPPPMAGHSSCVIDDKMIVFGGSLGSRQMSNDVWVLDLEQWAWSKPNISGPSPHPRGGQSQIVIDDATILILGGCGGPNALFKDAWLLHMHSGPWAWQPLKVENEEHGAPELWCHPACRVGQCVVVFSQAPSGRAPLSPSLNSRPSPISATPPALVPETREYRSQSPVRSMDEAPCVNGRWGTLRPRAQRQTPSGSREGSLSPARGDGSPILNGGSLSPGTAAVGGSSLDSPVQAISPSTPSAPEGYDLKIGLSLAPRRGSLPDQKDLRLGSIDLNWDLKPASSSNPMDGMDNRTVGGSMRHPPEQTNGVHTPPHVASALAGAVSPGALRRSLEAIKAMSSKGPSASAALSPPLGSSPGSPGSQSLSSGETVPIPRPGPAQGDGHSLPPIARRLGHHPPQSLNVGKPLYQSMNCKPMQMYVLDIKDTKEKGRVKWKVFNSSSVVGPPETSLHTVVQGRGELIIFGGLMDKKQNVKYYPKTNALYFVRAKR
UniProt Q96M96: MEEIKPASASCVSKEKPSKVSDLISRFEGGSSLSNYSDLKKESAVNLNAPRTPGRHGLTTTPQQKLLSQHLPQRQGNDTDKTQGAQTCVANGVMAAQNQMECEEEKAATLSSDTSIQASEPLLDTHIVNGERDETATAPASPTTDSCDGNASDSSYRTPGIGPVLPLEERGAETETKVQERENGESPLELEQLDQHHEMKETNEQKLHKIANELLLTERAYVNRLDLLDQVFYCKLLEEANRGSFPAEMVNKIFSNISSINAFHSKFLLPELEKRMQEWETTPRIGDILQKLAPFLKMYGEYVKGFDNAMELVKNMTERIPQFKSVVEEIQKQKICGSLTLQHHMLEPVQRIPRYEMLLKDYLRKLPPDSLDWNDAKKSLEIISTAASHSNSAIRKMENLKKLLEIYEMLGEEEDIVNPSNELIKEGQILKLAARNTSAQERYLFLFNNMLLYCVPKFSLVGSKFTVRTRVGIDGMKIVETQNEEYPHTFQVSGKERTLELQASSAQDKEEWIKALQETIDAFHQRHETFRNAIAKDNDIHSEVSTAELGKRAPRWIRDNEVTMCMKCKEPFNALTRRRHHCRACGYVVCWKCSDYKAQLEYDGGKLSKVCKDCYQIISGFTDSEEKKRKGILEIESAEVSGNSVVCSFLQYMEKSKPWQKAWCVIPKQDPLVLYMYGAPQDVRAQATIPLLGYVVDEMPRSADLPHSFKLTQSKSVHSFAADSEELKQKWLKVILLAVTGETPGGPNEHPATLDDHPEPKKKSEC
UniProt P51116, whole entry, looked up: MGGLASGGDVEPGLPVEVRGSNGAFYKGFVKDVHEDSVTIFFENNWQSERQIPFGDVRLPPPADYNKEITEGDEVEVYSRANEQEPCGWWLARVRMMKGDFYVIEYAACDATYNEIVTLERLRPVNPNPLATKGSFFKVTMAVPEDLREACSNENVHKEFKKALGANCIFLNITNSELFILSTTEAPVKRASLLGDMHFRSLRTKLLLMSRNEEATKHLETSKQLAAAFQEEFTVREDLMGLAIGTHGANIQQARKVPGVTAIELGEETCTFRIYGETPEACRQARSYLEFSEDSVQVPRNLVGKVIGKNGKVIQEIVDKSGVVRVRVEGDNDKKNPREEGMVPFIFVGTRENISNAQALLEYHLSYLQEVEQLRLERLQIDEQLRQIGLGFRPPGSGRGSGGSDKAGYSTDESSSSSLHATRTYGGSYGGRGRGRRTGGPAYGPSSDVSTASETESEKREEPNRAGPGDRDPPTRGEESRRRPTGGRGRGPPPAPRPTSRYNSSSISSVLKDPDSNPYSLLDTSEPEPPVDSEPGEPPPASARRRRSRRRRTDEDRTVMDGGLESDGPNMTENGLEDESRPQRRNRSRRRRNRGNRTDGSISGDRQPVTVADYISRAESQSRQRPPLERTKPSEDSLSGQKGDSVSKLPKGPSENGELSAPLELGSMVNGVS
UniProt Q6Y7W6: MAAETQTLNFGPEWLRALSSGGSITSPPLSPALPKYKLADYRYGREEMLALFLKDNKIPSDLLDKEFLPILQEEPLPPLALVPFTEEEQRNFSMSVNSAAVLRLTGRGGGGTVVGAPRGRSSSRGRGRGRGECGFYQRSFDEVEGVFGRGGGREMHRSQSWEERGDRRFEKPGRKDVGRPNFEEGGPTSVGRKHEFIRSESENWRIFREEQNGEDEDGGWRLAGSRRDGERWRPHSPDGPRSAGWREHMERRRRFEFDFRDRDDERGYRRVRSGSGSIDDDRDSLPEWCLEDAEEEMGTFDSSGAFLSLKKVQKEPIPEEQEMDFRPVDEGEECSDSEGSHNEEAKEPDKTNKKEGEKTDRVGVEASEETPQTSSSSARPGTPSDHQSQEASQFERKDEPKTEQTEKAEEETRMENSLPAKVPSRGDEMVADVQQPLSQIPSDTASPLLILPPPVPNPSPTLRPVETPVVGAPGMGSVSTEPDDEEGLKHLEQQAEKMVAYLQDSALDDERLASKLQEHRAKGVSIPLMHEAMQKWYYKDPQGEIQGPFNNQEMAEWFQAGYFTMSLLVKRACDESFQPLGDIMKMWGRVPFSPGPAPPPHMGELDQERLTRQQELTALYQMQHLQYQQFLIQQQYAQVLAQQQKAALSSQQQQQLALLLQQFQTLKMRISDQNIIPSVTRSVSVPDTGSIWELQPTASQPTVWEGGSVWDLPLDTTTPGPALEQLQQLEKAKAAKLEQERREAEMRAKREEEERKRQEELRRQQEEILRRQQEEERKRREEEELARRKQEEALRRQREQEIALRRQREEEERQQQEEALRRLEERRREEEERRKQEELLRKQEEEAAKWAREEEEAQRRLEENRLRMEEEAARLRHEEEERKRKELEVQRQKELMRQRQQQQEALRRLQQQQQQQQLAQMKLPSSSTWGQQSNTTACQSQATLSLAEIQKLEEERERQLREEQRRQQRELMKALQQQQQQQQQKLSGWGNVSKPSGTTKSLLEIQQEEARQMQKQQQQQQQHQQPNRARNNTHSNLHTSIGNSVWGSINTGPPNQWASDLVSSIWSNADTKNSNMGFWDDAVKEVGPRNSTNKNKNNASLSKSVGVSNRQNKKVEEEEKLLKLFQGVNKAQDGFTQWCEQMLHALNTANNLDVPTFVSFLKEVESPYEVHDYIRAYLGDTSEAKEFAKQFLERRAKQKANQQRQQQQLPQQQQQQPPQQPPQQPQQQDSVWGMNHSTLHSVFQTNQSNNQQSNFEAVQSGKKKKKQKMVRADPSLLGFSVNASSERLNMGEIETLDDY
UniProt P36915, whole entry, looked up: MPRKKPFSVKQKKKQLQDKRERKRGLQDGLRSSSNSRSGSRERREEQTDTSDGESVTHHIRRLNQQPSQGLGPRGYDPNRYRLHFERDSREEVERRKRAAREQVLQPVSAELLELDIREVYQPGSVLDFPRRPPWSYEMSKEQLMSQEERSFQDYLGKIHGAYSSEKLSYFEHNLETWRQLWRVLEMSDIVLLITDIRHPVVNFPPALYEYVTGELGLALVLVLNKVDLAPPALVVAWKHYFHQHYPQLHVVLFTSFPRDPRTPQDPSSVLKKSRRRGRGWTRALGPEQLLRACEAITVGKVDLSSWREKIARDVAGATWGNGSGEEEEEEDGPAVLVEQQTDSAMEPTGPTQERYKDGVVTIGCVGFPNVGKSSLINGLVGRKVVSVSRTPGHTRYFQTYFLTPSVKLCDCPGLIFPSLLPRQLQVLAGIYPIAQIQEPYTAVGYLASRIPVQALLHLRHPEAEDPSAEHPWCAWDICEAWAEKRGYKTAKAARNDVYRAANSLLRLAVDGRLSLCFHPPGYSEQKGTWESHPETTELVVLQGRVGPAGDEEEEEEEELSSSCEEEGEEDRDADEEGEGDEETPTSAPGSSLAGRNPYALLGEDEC
UniProt Q9NQX3: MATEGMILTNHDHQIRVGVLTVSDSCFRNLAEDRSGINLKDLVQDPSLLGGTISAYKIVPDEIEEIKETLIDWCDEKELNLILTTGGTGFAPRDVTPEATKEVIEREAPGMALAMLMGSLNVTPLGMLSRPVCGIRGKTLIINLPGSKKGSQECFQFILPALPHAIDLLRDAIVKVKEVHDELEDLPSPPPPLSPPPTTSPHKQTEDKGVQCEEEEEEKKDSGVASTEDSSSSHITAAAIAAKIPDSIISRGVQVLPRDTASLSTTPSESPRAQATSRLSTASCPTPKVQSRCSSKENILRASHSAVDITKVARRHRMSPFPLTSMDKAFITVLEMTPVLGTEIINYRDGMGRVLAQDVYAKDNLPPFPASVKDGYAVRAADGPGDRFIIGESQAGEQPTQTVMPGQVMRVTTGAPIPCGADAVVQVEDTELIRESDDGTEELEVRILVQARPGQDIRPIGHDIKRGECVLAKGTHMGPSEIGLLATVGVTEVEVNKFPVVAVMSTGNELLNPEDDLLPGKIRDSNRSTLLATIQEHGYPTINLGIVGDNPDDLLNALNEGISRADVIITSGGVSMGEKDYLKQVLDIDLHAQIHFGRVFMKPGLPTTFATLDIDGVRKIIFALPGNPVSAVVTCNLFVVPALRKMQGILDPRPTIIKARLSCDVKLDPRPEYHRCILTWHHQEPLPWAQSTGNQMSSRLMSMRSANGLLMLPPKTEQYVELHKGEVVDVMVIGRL
UniProt P35269, whole entry, looked up: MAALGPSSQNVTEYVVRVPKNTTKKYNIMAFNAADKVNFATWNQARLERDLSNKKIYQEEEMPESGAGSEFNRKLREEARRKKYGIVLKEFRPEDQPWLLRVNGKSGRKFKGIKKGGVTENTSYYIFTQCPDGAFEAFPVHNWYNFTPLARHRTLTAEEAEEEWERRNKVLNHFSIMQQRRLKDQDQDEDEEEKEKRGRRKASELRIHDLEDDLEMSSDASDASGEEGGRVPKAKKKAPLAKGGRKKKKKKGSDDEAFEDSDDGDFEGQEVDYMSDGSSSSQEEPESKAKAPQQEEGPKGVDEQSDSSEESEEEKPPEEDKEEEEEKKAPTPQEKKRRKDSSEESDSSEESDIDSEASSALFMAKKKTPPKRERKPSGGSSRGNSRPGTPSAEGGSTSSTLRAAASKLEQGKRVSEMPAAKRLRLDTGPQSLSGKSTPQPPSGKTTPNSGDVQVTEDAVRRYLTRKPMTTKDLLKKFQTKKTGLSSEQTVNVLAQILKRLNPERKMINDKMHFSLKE

The targets below were run with CC[C@@H](C)Nc1cc(C(=O)N[C@H]2C[C@H]3CC[C@@H](C2)N3c2ccc(C(=O)C3CC3)cn2)c(C)cc1C(N)=O [XL888] (assay: phosphopeptide melting temperature shift (XL888 minus DMSO); higher = stabilised by drug treatment). Settings: 100 µM; treatment time 2 h; layout: intact cells; SK-Mel 28.
Description: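 Phospho-TPP in intact SK-Mel 28 cells treated with 100 uM XL888 or DMSO for 2 h, heated at 10 temperatures (37-67 C) for 3 min, soluble fraction TMT10plex-labelled and TiO2 phospho-enriched. Melting curves were fitted per phosphopeptide; the value is the melting point difference (drug minus vehicle) in each of two biological replicates.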

Target	phosphopeptide melting temperature shift
DDX46 phosphosite_804 (phosphosite position: 804) (UniProt Q7L014)	-0.718 ± 0.27 °C
DIDO1 phosphosite_898 (phosphosite position: 898) (UniProt Q9BTC0)	2.74 °C
DIS3L2 phosphosite_875 (phosphosite position: 875) (UniProt Q8IYB7)	-0.0578 ± 0.57 °C
DNAJC17 phosphosite_112 (phosphosite position: 112) (UniProt Q9NVM6)	5.79 °C
DNAJC21 phosphosite_370 (phosphosite position: 370) (UniProt Q5F1R6)	2.02 °C
DNMT1 phosphosite_714 (phosphosite position: 714) (UniProt P26358)	0.818 ± 0.56 °C
DOCK5 phosphosite_1766 (phosphosite position: 1766) (UniProt Q9H7D0)	-0.0603 °C
DOCK5 phosphosite_1789 (phosphosite position: 1789) (UniProt Q9H7D0)	0.997 °C
DTX3L phosphosite_532 (phosphosite position: 532) (UniProt Q8TDB6)	2.59 ± 0.68 °C
DUSP22 phosphosite_58 (phosphosite position: 58) (UniProt Q9NRW4)	1.85 °C
DYNC1LI1 phosphosite_213 (phosphosite position: 213) (UniProt Q9Y6G9)	0.691 °C
EEF1D phosphosite_147 (phosphosite position: 147) (UniProt P29692)	1.13 °C
EEF1D phosphosite_162 (phosphosite position: 162) (UniProt P29692)	0.749 ± 0.42 °C
EEF2K phosphosite_470 (phosphosite position: 470) (UniProt O00418)	0.963 °C
EEF2K phosphosite_474 (phosphosite position: 474) (UniProt O00418)	0.963 °C
EIF2S2 phosphosite_2 (phosphosite position: 2) (UniProt P20042)	-0.627 °C
EIF2S2 phosphosite_31 (phosphosite position: 31) (UniProt P20042)	1.5 °C
EIF3B phosphosite_154 (phosphosite position: 154) (UniProt P55884)	0.144 °C
EIF3B phosphosite_164 (phosphosite position: 164) (UniProt P55884)	0.144 °C
EIF4EBP1 phosphosite_46 (phosphosite position: 46) (UniProt Q13541)	-1.47 °C
EIF5B phosphosite_107 (phosphosite position: 107) (UniProt O60841)	0.488 ± 0.47 °C
EIF5B phosphosite_135 (phosphosite position: 135) (UniProt O60841)	2.04 ± 2.4 °C
EIF5B phosphosite_137 (phosphosite position: 137) (UniProt O60841)	0.297 ± 0.16 °C
EIF6 phosphosite_239 (phosphosite position: 239) (UniProt P56537)	-1.11 ± 2.4 °C

Target	phosphopeptide melting temperature shift
ELMSAN1 phosphosite_461 (phosphosite position: 461) (UniProt Q6PJG2)	-0.0293 ± 0.2 °C
EML4 phosphosite_146 (phosphosite position: 146) (UniProt Q9HC35)	2.15 ± 2.4 °C
EP300 phosphosite_1038 (phosphosite position: 1038) (UniProt Q09472)	-1.68 °C
EPS15L1 phosphosite_241 (phosphosite position: 241) (UniProt Q9UBC2)	2.59 ± 1.9 °C
EPS15L1 phosphosite_255 (phosphosite position: 255) (UniProt Q9UBC2)	0.158 ± 2.4 °C
ERCC5 phosphosite_156 (phosphosite position: 156) (UniProt P28715)	1.69 °C
ERCC5 phosphosite_157 (phosphosite position: 157) (UniProt P28715)	1.69 °C
ETV3 phosphosite_159 (phosphosite position: 159) (UniProt P41162)	0.124 °C
FAM53C phosphosite_232 (phosphosite position: 232) (UniProt Q9NYF3)	-0.773 ± 1.5 °C
FAM53C phosphosite_234 (phosphosite position: 234) (UniProt Q9NYF3)	-0.773 ± 1.5 °C
FAM83H phosphosite_892 (phosphosite position: 892) (UniProt Q6ZRV2)	-2.37 ± 3.4 °C
FAM122A phosphosite_76 (phosphosite position: 76) (UniProt Q96E09)	3.47 °C
FAM122A phosphosite_143 (phosphosite position: 143) (UniProt Q96E09)	1.84 ± 1.2 °C
FAM122B phosphosite_115 (phosphosite position: 115) (UniProt Q7Z309)	0.313 ± 2.1 °C
FAM122B phosphosite_119 (phosphosite position: 119) (UniProt Q7Z309)	-0.632 ± 1.1 °C
FARP1 phosphosite_433 (phosphosite position: 433) (UniProt Q9Y4F1)	1.63 ± 0.58 °C
FASN phosphosite_207 (phosphosite position: 207) (UniProt P49327)	0.302 ± 0.3 °C
FBXO6 phosphosite_284 (phosphosite position: 284) (UniProt Q9NRD1)	0.586 ± 0.42 °C
FBXO42 phosphosite_488 (phosphosite position: 488) (UniProt Q6P3S6)	1.29 ± 0.61 °C
FGD4 phosphosite_702 (phosphosite position: 702) (UniProt Q96M96)	-0.182 ± 0.27 °C
FKBP3 phosphosite_36 (phosphosite position: 36) (UniProt Q00688)	0.436 ± 0.77 °C
FXR2 phosphosite_601 (phosphosite position: 601) (UniProt P51116)	2.75 ± 1.3 °C
FXR2 phosphosite_603 (phosphosite position: 603) (UniProt P51116)	4.54 °C
GAB1 phosphosite_551 (phosphosite position: 551) (UniProt Q13480)	0.165 °C

Target	phosphopeptide melting temperature shift
GAPDH phosphosite_83 (phosphosite position: 83) (UniProt P04406)	-1.79 ± 0.38 °C
GIGYF2 phosphosite_160 (phosphosite position: 160) (UniProt Q6Y7W6)	1.11 ± 0.63 °C
GIGYF2 phosphosite_335 (phosphosite position: 335) (UniProt Q6Y7W6)	-0.828 °C
GIGYF2 phosphosite_593 (phosphosite position: 593) (UniProt Q6Y7W6)	0.837 ± 0.91 °C
GIT1 phosphosite_388 (phosphosite position: 388) (UniProt Q9Y2X7)	0.624 ± 0.44 °C
GIT1 phosphosite_596 (phosphosite position: 596) (UniProt Q9Y2X7)	0.305 ± 0.1 °C
GLCCI1 phosphosite_172 (phosphosite position: 172) (UniProt Q86VQ1)	3.23 °C
GLCCI1 phosphosite_303 (phosphosite position: 303) (UniProt Q86VQ1)	-1.78 °C
GNL1 phosphosite_48 (phosphosite position: 48) (UniProt P36915)	0.265 °C
GNL1 phosphosite_50 (phosphosite position: 50) (UniProt P36915)	0.265 °C
GNL1 phosphosite_51 (phosphosite position: 51) (UniProt P36915)	-1.35 ± 0.71 °C
GPHN phosphosite_188 (phosphosite position: 188) (UniProt Q9NQX3)	0.587 ± 2.6 °C
GPHN phosphosite_194 (phosphosite position: 194) (UniProt Q9NQX3)	0.416 ± 2.8 °C
GPHN phosphosite_305 (phosphosite position: 305) (UniProt Q9NQX3)	3.39 °C
GPKOW phosphosite_42 (phosphosite position: 42) (UniProt Q92917)	1.76 °C
GPRASP2 phosphosite_328 (phosphosite position: 328) (UniProt Q96D09)	2.11 °C
GPRASP2 phosphosite_330 (phosphosite position: 330) (UniProt Q96D09)	2.11 °C
GSDMD phosphosite_252 (phosphosite position: 252) (UniProt P57764)	0.921 ± 0.44 °C
GTF2F1 phosphosite_218 (phosphosite position: 218) (UniProt P35269)	2.74 °C
GTF2F1 phosphosite_221 (phosphosite position: 221) (UniProt P35269)	-1.47 °C
GTF2F1 phosphosite_446 (phosphosite position: 446) (UniProt P35269)	0.641 °C
GTPBP1 phosphosite_44 (phosphosite position: 44) (UniProt O00178)	-0.457 °C
GTPBP1 phosphosite_47 (phosphosite position: 47) (UniProt O00178)	-0.457 °C

Reprinted from above (3 entries):
Target	phosphopeptide melting temperature shift
FGD4 phosphosite_702 (phosphosite position: 702) (UniProt Q96M96)	-0.182 ± 0.27 °C
FKBP3 phosphosite_36 (phosphosite position: 36) (UniProt Q00688)	0.436 ± 0.77 °C
FXR2 phosphosite_601 (phosphosite position: 601) (UniProt P51116)	2.75 ± 1.3 °C

Reformatted comma-delimited: entries from further up
Target,phosphopeptide melting temperature shift
FBXO42 phosphosite_488 (phosphosite position: 488) (UniProt Q6P3S6),1.29 ± 0.61 °C
FGD4 phosphosite_702 (phosphosite position: 702) (UniProt Q96M96),-0.182 ± 0.27 °C
